Source: PubChem BioAssay AID1347075 (National Center for Advancing Translational Sciences (NCATS), 2019)
In all, about 400,000 compounds went through this assay and about 5,500 (1.4%) were called active. This list was built around the results that the source calls inconclusive (neither active nor inactive); the mix of calls is not that of the screen. Calls follow the shape of the dose curve; as a rule, active = well fitted cell-killing curve with a large enough effect; inconclusive = small, poorly fitted or top-dose-only effect, or effect the other way; inactive = flat fitted curve, though single readings scatter. Potencies of inconclusive entries are doubtful fits and often do not repeat.

Test: qHTS assay for MDR1-selective chemotherapeutics: Primary screen using the parental adenocarcinoma cell KB-3-1; also: nearly all actives have a fitted effect of over 60% in size
Settings: KB-3-1 viability, CellTiter-Glo ATP luminescence, 72 h; activity change, negative = cytotoxic: at 46.1 µM (top of the series)
In short: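 Parental KB-3-1 viability, qHTS format: 72 h compound exposure, 37 °C; CellTiter-Glo; media-only wells and DMSO plates as controls; concentration-effect fits on corrected data.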
% is scaled to controls: 0 for no effect and ±100 for the full control effect; potency is read from the fitted curve at half-maximal effect.

With CCn1cc([N+](=O)[O-])c(C(=O)N2N=C(c3ccc(O)c(OC)c3)CC2c2ccccc2O)n1 (stereo not drawn) as the compound, how does the Potency read?
The Potency was inconclusive: 29.1 µM [cytotoxic, single point].

For CC(C)NC(=S)N/N=C/c1ccccc1[N+](=O)[O-], which Potency is on record?
Its Potency is inconclusive: 29.1 µM [rising, single point].

For CCn1c(O)c(N=NC(=O)CNC(=O)Cc2ccccc2)c2ccccc21, which Potency is on record?
Its Potency is “inactive”.

For O=C(COC(=O)c1c2c(nc3ccccc13)CCCC2)c1ccc(Br)s1, which Potency is on record?
The Potency was inconclusive: 29.1 µM [cytotoxic, single point].

For Cc1ccc2c(=O)cc(C(=O)Nc3nc4ccc(Cl)cc4s3)oc2c1, which Potency is on record?
Its Potency is “inactive”.

Which Potency does the source give for CCOC(=O)c1c(S(=O)(=O)NCc2ccco2)c(C)n(C)c1C here?
Its Potency is “inactive”.

Which Potency does the source give for CCCCn1nnnc1NCc1cc(OC)c(OC)c(OC)c1 here?
The Potency was inconclusive: 11.6 µM [cytotoxic, single point].

Which Potency does the source give for Cc1cccn2c(Nc3ccccc3)c(-c3ccccn3)nc12 here?
Its Potency is inconclusive: 32.6 µM [cytotoxic, single point].

Which Potency does the source give for COc1cccc(N2CCN(C(=O)c3cc(-c4ccccc4)nc4c3cnn4C(C)C)CC2)c1 here?
The Potency was inconclusive: 29.1 µM [cytotoxic, single point].

With CC(C)(C)c1ccc(C(=O)CC(=O)c2cc(Cl)ccc2O)cc1 as the compound, how does the Potency read?
Its Potency is active: 5.8 µM.

With CN(C)c1ccc(/C=C/c2ccnc3ccc4ccccc4c23)cc1 as the compound, how does the Potency read?
Its Potency is active: 1.64 µM.

Which Potency does the source give for COc1ccc2nc(-c3ccccc3)cc(C(=O)OCC(=O)N3CCCCC3)c2c1 here?
Its Potency is inconclusive: 32.6 µM [cytotoxic, single point].

For CCC(C)Sc1ccc(-c2nc3ccc(C)cn3c2NCc2ccccc2)cc1 (stereo not drawn), which Potency is on record?
The Potency was inconclusive: 23.1 µM [cytotoxic, single point].

Which Potency does the source give for Cc1ccc(C(C)C)cc1NC(=O)Nc1ccc([N+](=O)[O-])cc1 here?
Its Potency is inconclusive: 29.1 µM [cytotoxic, single point].

For CCOc1ccc(Nc2c3c(nc4nncn24)CCC3)cc1, which Potency is on record?
Its Potency is inconclusive: 29.1 µM [cytotoxic, single point].

Which Potency does the source give for CCSC1(SCC)N=C(N)C2(C#N)C(c3ccc(F)cc3)C12C#N (stereo not drawn) here?
The Potency was inconclusive: 29.1 µM [cytotoxic, single point].

Which Potency does the source give for C[C@@H](NC(=O)c1ncn2c1c(=O)[nH]c1ccc(Br)cc12)c1ccccc1 here?
Its Potency is inconclusive: 29.1 µM [cytotoxic, single point].

With Cc1cc([N+](=O)[O-])nn1CCCC(=O)Nc1sc2c(c1C(N)=O)CCCC2 as the compound, how does the Potency read?
The Potency was “inactive”.

With COc1ccc2cc(CN(CC3CCCO3)C(=O)Nc3ccccc3)c(=O)[nH]c2c1 (stereo not drawn) as the compound, how does the Potency read?
The Potency was inconclusive: 16.4 µM [cytotoxic, single point].

Which Potency does the source give for COc1ccc([C@H]2CC(=O)C=C(c3ccc(Cl)cc3C)C2)cc1 here?
Its Potency is inconclusive: 23.1 µM [cytotoxic, single point].

With CC1CCCN(c2nc(-c3cccnc3)nc3scc(-c4ccccc4)c23)C1 (stereo not drawn) as the compound, how does the Potency read?
The Potency was “inactive”.

For O=C(CN(C1CC1)S(=O)(=O)c1ccc(S(=O)(=O)NC2CCCCC2)cc1)Nc1ccccc1, which Potency is on record?
Its Potency is inconclusive: 9.2 µM [cytotoxic, partial curve, poor fit].

For CCN(CC)CC(=O)Nc1sc2c(c1C(=O)c1ccccc1OC)CCC2, which Potency is on record?
Its Potency is inconclusive: 29.1 µM [cytotoxic, single point].

With O=C(CCS(=O)(=O)c1cccc2nonc12)Nc1ccc(F)cc1F as the compound, how does the Potency read?
The Potency was “inactive”.

Which Potency does the source give for C=CCOc1cccc(C(=O)N(C)C2CCCN(Cc3ccccc3F)C2)c1 (stereo not drawn) here?
Its Potency is inconclusive: 23.1 µM [cytotoxic, single point].

With Cc1ccc(N2CCN(c3cc(C)nc4nc(C)nn34)CC2)c(C)c1 as the compound, how does the Potency read?
The Potency was inconclusive: 32.6 µM [rising, single point].

Which Potency does the source give for CCC(=O)N1CCc2cc(S(=O)(=O)NC(CC(C)C)C(=O)N3CCc4ccccc43)ccc21 (stereo not drawn) here?
The Potency was “inactive”.

Which Potency does the source give for CSc1nc2ccc(S(=O)(=O)N3CCc4ccccc43)cc2s1 here?
The Potency was inconclusive: 16.4 µM [cytotoxic, partial curve, poor fit].

Which Potency does the source give for O=C(Nc1ccc(F)cc1)Nc1csc2ccccc12 here?
The Potency was inconclusive: 16.4 µM [cytotoxic, single point].

With CCOC(=O)C1C(C(=O)OCC)C1(c1ccccc1)c1ccccc1 (stereo not drawn) as the compound, how does the Potency read?
The Potency was “inactive”.

With O=C(NCCc1ccc(F)cc1)C(=O)NCC(c1cccs1)S(=O)(=O)c1ccccc1 (stereo not drawn) as the compound, how does the Potency read?
The Potency was “inactive”.

For O=C1CC(c2ccc(F)cc2)CC2=C1C=Nc1ccccc1N2 (stereo not drawn), which Potency is on record?
The Potency was inconclusive: 23.1 µM [cytotoxic, single point].

With CCC[C@H]1CN(c2ccc(OC)cc2)C(=O)[C@@H]1CC(=O)Nc1ccccc1 as the compound, how does the Potency read?
The Potency was “inactive”.

With COc1ccccc1N1CCN(C2C(=O)Nc3ccccc3-n3nnnc32)CC1 (stereo not drawn) as the compound, how does the Potency read?
Its Potency is inconclusive: 29.1 µM [cytotoxic, single point].

With Cc1cccc(-c2nc(C)c(CCNC(=O)C(=O)Nc3ccc(C)c(C)c3)s2)c1 as the compound, how does the Potency read?
Its Potency is “inactive”.

With CCn1c(=O)cc(OCC(=O)NCCc2cccc(C)c2)c2ccccc21 as the compound, how does the Potency read?
Its Potency is inconclusive: 18.4 µM [cytotoxic, single point].

Which Potency does the source give for COc1cccc(CN(C)C(=O)c2cccc(S(=O)(=O)N3CCN(c4ccc(F)cc4)CC3)c2)c1OC here?
Its Potency is inconclusive: 14.6 µM [cytotoxic, partial curve].

With Cc1cc(C)n(-c2ccc(C(=O)N3CCc4ccccc43)cc2)n1 as the compound, how does the Potency read?
Its Potency is inconclusive: 32.6 µM [cytotoxic, partial curve, poor fit].

Which Potency does the source give for Cc1[nH]nc(-c2cccnc2)c1N=NN(C)C here?
Its Potency is inconclusive: 29.1 µM [cytotoxic, single point].

With O=C(/C=C/c1ccc(F)cc1)NNC(=O)CCN1CCN(Cc2ccccc2)CC1 as the compound, how does the Potency read?
Its Potency is inconclusive: 11.6 µM [cytotoxic, partial curve, poor fit].

Which Potency does the source give for COc1ccc(Cl)cc1S(=O)(=O)N1CCN(C(=O)c2cc(-c3ccc(Br)cc3)n[nH]2)CC1 here?
The Potency was inconclusive: 29.1 µM [cytotoxic, single point].

With CC(=O)[C@H]1CCC2C3CC=C4C[C@@H](O)CC[C@]4(C)C3CC[C@@]21C (stereo partly drawn) as the compound, how does the Potency read?
The Potency was “inactive”.

For Cc1ccc2nc(-c3ccncc3)cc(C(=O)Nc3ccc(F)cc3C)c2c1, which Potency is on record?
The Potency was inconclusive: 29.1 µM [rising, single point].

With CCc1nc(SCC(=O)c2ccc3c(c2)OCCO3)c2ccccc2n1 as the compound, how does the Potency read?
The Potency was inconclusive: 29.1 µM [cytotoxic, single point].

With Cc1ccc(Nc2cc(C)nc3c(C)cccc23)cc1 as the compound, how does the Potency read?
The Potency was inconclusive: 29.1 µM [cytotoxic, single point].

For CCOc1cc(C2C(C(=O)OC)=C(C)NC3=C2C(=O)c2ccccc23)cc(Br)c1OCC (stereo not drawn), which Potency is on record?
The Potency was inconclusive: 23.1 µM [cytotoxic, single point].

Which Potency does the source give for COc1ccc(/C=C/C(=O)Nc2cccc(S(=O)(=O)N3CCCC3)c2)cc1OC here?
The Potency was inconclusive: 16.4 µM [cytotoxic, single point].

For COc1cc(OC)c2c(-c3ccccc3)cc(=O)oc2c1C(CCN1CCOCC1)c1ccc2c(c1)OCO2 (stereo not drawn), which Potency is on record?
The Potency was “inactive”.

For O=C(NC1CCCCCCC1)C1CCN(S(=O)(=O)N2CCCC2)CC1, which Potency is on record?
The Potency was “inactive”.

With CCC1Sc2ccc(S(=O)(=O)CCC(=O)NCc3cccs3)cc2NC1=O (stereo not drawn) as the compound, how does the Potency read?
The Potency was inconclusive: 23.1 µM [cytotoxic, partial curve, poor fit].

For CC(=O)NC(=S)Nc1ccc(NC(=O)COc2ccc(Cl)cc2Cl)cc1, which Potency is on record?
Its Potency is “inactive”.

With Cn1c(SCC(=O)NC2CCCc3ccccc32)nnc1C1CC1 (stereo not drawn) as the compound, how does the Potency read?
The Potency was “inactive”.

Which Potency does the source give for Cc1ccc(C2=CC(=O)CC(C)(C)C2)cc1 here?
Its Potency is “inactive”.

For O=C(NCC(=O)N1CCN(Cc2ccccc2)CC1)c1ccc(Br)cc1, which Potency is on record?
Its Potency is inconclusive: 14.6 µM [cytotoxic, single point].

With Cc1cc(C)cc(C(O)c2ncc(-c3ccc(F)cc3)[nH]2)c1 (stereo not drawn) as the compound, how does the Potency read?
The Potency was “inactive”.

With O=C1c2ccc3c4c(ccc(c24)C(=O)N1CCCCO)C(=O)N(CCCCO)C3=O as the compound, how does the Potency read?
Its Potency is active: 3.66 µM.

Which Potency does the source give for CC(=O)Nc1ccc(NC(=O)C2Cc3ccccc3N2C(=O)c2ccccc2)cc1 (stereo not drawn) here?
Its Potency is “inactive”.

With O=C(C1=C[C@@H](C2CCCCC2)C[C@@H](OCCCCO)O1)N1CCN(Cc2ccc3c(c2)OCO3)CC1 as the compound, how does the Potency read?
Its Potency is “inactive”.

Which Potency does the source give for OC[C@@H]1CN(Cc2ccccc2)C[C@H](n2cnc3c(N4CCCC4)ncnc32)O1 here?
The Potency was inconclusive: 32.6 µM [cytotoxic, partial curve, poor fit].

For COc1ccc(C(=O)N=c2sc3c(C)ccc(OC)c3n2C)cc1OC, which Potency is on record?
Its Potency is inconclusive: 29.1 µM [cytotoxic, single point].

Which Potency does the source give for O=C(CN1C(=O)NC(c2ccccc2)(c2ccccc2)C1=O)N1CCN(c2ccc(F)cc2)CC1 here?
Its Potency is inconclusive: 20.6 µM [cytotoxic, single point].

Which Potency does the source give for CCCCC(=O)NC(c1ccc(N(C)C)cc1)c1ccc2cccnc2c1O (stereo not drawn) here?
Its Potency is inconclusive: 5.8 µM [cytotoxic, full curve].

With COc1cccc2[nH]c(C(=O)NCc3ccc4c(c3)CCN4C(=O)c3ccc(F)cc3)cc12 as the compound, how does the Potency read?
Its Potency is inconclusive: 7.31 µM [cytotoxic, partial curve].

With CC(=O)Nc1ccc(C(=O)OCCc2ccccc2)cc1 as the compound, how does the activity change, negative = cytotoxic read?
The activity change, negative = cytotoxic was inconclusive: -8.68%.

Which Potency does the source give for CC(=O)Nc1ccc(-c2ccnc3c2CC(C)(C(=O)Nc2ccc(Cl)cc2)O3)cc1 (stereo not drawn) here?
Its Potency is inconclusive: 29.1 µM [cytotoxic, single point].

With COc1cc(/C=N/NC(=O)c2cc(-c3ccc4c(c3)OCO4)n[nH]2)ccc1O as the compound, how does the Potency read?
Its Potency is inconclusive: 23.1 µM [rising, partial curve, poor fit].

Which Potency does the source give for Cc1oc2ccc(O)c(CN3CCCC(C)C3)c2c1C(=O)Nc1ccccc1 (stereo not drawn) here?
The Potency was inconclusive: 0.517 µM [cytotoxic, partial curve, poor fit].

Which Potency does the source give for COc1ccc(-c2cc(C(=O)N(C)Cc3ccc(F)cc3)c3ccccc3n2)cc1OC here?
The Potency was “inactive”.
